Experimental data published in patent publication US20120231006A1.
These are yes or no findings as the source states them, for the method shown. Some entries that bind do so weakly or less than the wild type.

The chains behind the UniProt entries cited, without tags or fusion partners. Where a name states a change or a piece, a line headed by the entry shows the natural chain unless it says otherwise.
UniProt Q96D31: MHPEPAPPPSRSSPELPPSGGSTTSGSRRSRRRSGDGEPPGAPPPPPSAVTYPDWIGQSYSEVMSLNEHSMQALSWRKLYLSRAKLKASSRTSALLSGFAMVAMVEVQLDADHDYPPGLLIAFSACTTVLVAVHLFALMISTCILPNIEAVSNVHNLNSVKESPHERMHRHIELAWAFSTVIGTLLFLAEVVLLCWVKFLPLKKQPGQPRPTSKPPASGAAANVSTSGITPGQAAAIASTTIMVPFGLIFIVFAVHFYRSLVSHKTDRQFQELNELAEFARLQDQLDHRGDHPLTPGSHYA

Key:
human Orai1 (human) [1] = target: human Orai1 (human) (UniProt Q96D31); assay: FACS, AM1-CHO/Orai1 cells
human Orai1 (human) [2] = target: human Orai1 (human) (UniProt Q96D31); assay: FACS, AM1/hOrai1 cells, recombinant mAb
[3] = target: cynomolgus Orai1 (cynomolgus monkey); assay: FACS, 293EBNA transfectants, 2 µg mAb
[4] = target: human Orai1 (N223S) variant protein (human) (UniProt Q96D31); assay: FACS, 293EBNA transfectants, 2 µg mAb
human Orai1 (human) [5] = target: human Orai1 (human) (UniProt Q96D31); assay: KinExA free-mAb rank, AM1-CHO/hOrai1/hSTIM1-YFP cells
human Orai1 (human) [6] = target: human Orai1 (human) (UniProt Q96D31); assay: KinExA, percent free mAb after equilibration of 30 pM Ab with AM1-CHO/hOrai1/hSTIM1-YFP cells at 3E4, 1E5 and 3E5 cell/ml

Measured: binding

B1: mAb 5H3.1 (antibody, human IgG2, lambda, V domains shown)
VH: QVQLVQSGAEVKKPGASVKVSCKASGYTFTDYYMNWVRQAPGQGLEWMGWINPNSGGTKYAQKFQGRVTMTRDTSIRTAYMELSRLRSDDTAVYYCAREYGGNSDWFDPWGQGTLVTVSS
VL: QSVLTQPPSVSGAPGQRVTISCTGSSSNIGAGYDVHWYQQLPGTAPKLLIYGNSNRPSGVPDRFSGSKSGTSASLAITGLQAEDEADYYCQSYDNRLSDSVVIGGGTKLAVQG
binds: all assays above
